## Library screen at single concentrations

Protein sequences, listed by entry. Tags and fused reporters are not part of them. Residues count along the entry.
UniProt Q8IDJ8, 1-583: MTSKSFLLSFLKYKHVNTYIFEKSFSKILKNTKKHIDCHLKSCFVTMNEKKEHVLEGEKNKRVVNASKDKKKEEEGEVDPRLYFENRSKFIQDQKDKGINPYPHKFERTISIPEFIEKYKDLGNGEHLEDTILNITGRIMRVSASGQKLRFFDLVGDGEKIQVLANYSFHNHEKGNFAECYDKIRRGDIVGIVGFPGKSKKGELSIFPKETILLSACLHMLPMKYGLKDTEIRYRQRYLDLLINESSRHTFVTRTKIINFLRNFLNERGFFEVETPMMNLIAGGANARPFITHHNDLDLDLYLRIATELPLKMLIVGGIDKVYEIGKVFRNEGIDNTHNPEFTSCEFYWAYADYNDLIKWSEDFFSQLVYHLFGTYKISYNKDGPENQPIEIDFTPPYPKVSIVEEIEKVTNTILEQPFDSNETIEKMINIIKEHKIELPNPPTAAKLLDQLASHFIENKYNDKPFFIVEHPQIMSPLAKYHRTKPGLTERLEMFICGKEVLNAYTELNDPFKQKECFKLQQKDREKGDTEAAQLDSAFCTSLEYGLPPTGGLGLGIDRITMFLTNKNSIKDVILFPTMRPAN

Measurements from “University of Dundee, Small-Polar-MMV Screening Library” (2021), ChEMBL document CHEMBL3988442.

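Lysine-tRNA ligase, Plasmodium falciparum 3D7 (UniProt Q8IDJ8). Enzyme assay of the cytosolic lysyl-tRNA synthetase in 384-well plates, read by luminescence. Compounds at 30 µM. Higher reads as stronger inhibition, judged from the few compounds that gave an IC50. About 69,000 compounds were tested under these conditions; 0.071% (about 49) showed 50% or more at least once.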

Each number is a percent effect as filed. How 0% and 100% were set is not recorded. Most values in the screen are low, and negative values occur. This is an unselected part of the compounds tested.

| compound | Percent Effect |
|---|---|
| `CCC(C(=O)N1CCCSCC1)N1CCCC1=O` (stereo not given) | -2.628% |
| `CC(O)(CNC(=O)c1cccnc1-n1cccn1)c1ccsc1` (stereo not given) | 2.712% |
| `CNC(=O)c1cccnc1Oc1ccccc1` | -2.353% |
| `CC(O)CN(Cc1cccc(C(=O)N(C)C)c1)c1ccccc1` (stereo not given) | 0.05652% |
| `CC(=O)N1CCC(CN2CCN(Cc3nccn3C)C(C)C2)CC1` (stereo not given) | 6.826% |
| `Cn1ncc2c(N3CCN4CCCCC4C3)nc(C3CCCC3)nc21` (stereo not given) | 0.8375% |
| `O=C(c1ccoc1)N1CCC2(C1)CN(c1nccs1)C2` | -0.6554% |
| `COc1cccc(CC(=O)N2CCCN(c3ccnc(C)c3)CC2)c1` | 8.331% |
| `COc1ccccc1N1CCC(N2CCOCC(CO)C2)CC1` (stereo not given) | 15.13% |
| `Cn1nc2c(cc1=O)CN(Cc1nc(C3CC3)no1)CC2` | 8.164% |
| `Cc1nc(CNCC2CCCN2c2cccnn2)no1` (stereo not given) | 6.005% |
| `COCCC(=O)NCc1ccc(-c2ccccc2C(=O)O)cn1` | 2.06% |
| `Cn1ncc2c1CCCC2NCc1ccc(Br)s1` (stereo not given) | 7.428% |
| `O=C(C1CCCN(Cc2cccc(F)c2)C1)N1CCc2sccc2C1` (stereo not given) | 2.041% |
| `Cc1cc(F)ccc1-n1cc(O)c(C(=O)NCC2(O)CCC2)n1` | 1.507% |
| `Cn1cc(CN2Cc3cn(C)nc3C(COCC3CC3)C2)cn1` (stereo not given) | 2.67% |
| `COc1ccccc1OC1CN(C(=O)Cc2c(C)nc(N)nc2C)C1` | 4.308% |
| `CC(C)(C)C(O)CCNC(=O)c1ccc(F)cc1Cl` (stereo not given) | 4.538% |
| `O=C1CC2(CCN(Cc3ccccn3)C2)CN1c1cccnc1` (stereo not given) | 4.637% |
| `Cc1ncsc1-c1nnc(C2CCCN2C(=O)Cn2cccn2)o1` (stereo not given) | -0.1565% |
| `NC(=O)CNC(=O)c1ccc(CNCc2ccc(F)cc2F)cc1` | 5.795% |
| `Cc1csc(CN2CC[C@H]3O[C@H](C(=O)Nc4cccnc4)CC[C@H]32)n1` | -20.34% |
| `Cc1ccc(C(=O)N2CCC(O)(CN3CCc4ccccc4C3)C2)s1` (stereo not given) | 4.064% |
| `COc1cccc(COCC(=O)N2CCN(S(C)(=O)=O)CC2)c1` | 1.137% |
| `COc1cncc(N2CCN(Cc3ccncc3Cl)CC2)n1` | 7.542% |
| `Cc1cccc(C(=O)N2CCCN(Cc3cscn3)CC2)c1` | 0.3886% |
| `CCn1ncc2c1C(COC)CN(Cc1ccco1)C2` (stereo not given) | 0.6251% |
| `COc1cc(CN2CCC3(CC2)[C@H](O)C[C@@H]3OCCO)ccc1F` | 0.4165% |
| `CCC(=O)NCc1cc(Br)ccc1OC(F)F` | 3.582% |
| `Cc1nn(C)c2cn(C(C)C(=O)NCc3ccccn3)nc12` (stereo not given) | 2.268% |
| `COC[C@@H]1CCC[C@@]12CN(Cc1ccc(C)s1)CCO2` | 2.458% |
| `COc1cc(N2C[C@H]3CN(Cc4ccccn4)C[C@H]3C2)ncn1` | 4.035% |
| `CCNC(=O)[C@@H]1C[C@@H](n2cc(CC3CCCCC3)nn2)CN1` | 13.72% |
| `Cc1cc(Br)c(O)c(-c2nc(N3CCCCC3)sc2C)c1` | 1.727% |
| `O=C1CCCc2cc(-c3csc(CCN4CCOC4=O)n3)ccc2N1` | 1.704% |
| `Cc1c(C(=O)N(C)CC(C)O)sc2nc(C(F)(F)F)ccc12` (stereo not given) | 6.248% |
| `CC(Nc1cccc(CN2CCOC2=O)c1)C(=O)Nc1ccccc1F` (stereo not given) | -0.1876% |
| `O=C(NCC(=O)N1CCCc2ccccc21)c1c(O)cc(F)cc1F` | -1.084% |
| `CC(C)(C)OC(=O)NCC(=O)NCc1ccc(Cl)s1` | 5.752% |
| `Cc1nc(-c2ccc(S(=O)(=O)N3CCSCC3)cc2)co1` | 0.5817% |
| `Cc1cnn(CC2CCCN2C(=O)c2cccc(-n3cnnn3)c2)c1` (stereo not given) | 3.757% |
| `O=C1NCCCCC1NC(=O)N1CCc2ccccc21` (stereo not given) | 3.56% |
| `O=C(CCc1cc2n(n1)CCCN(Cc1ccccc1F)C2)NC1CC1` | 3.436% |
| `O=C(CCN1CCCO1)N1CCCC(CO)(CCCc2ccccc2)C1` (stereo not given) | 5.391% |
| `CN(Cc1ccccc1)CC1CC2(CO1)CN(Cc1nccs1)C2` (stereo not given) | -0.2282% |
| `CCOCCC(=O)N1CCc2cccc(S(=O)(=O)N3CCOCC3)c2C1` | 1.759% |
| `O=C(CCCc1nc2ccccc2[nH]1)N1CCCC1c1ccncc1` (stereo not given) | -8.49% |
| `COCC[C@]1(O)CCN(CC(=O)NCc2ccccn2)C[C@H]1C` | 2.719% |
| `Clc1cccc2c1CCN(Cc1nc(CC3CC3)no1)C2` | 4.139% |
| `CN(C)C(=O)c1n[nH]c2c1CN(Cc1ccccn1)CC2` | 4.612% |
| `COc1c(C)cnc(CNC(=O)CCc2nc3ccccc3[nH]2)c1C` | 3.474% |
| `CCn1cnnc1C1CCN(C(=O)c2cc3c(s2)CCCC3)CC1` | 0.2241% |
| `COc1ccc(C(=O)NCCCn2ccnc2)c(OC)n1` | -10.2% |
| `CCOC(=O)C1CCN(C(=O)c2cc(OCC)c3ccoc3c2)CC1` | 3.901% |
| `O=C1NCCN1C1CCN(Cc2nc(-c3ccccc3)no2)CC1` | 0.3705% |
| `Cc1nc(-c2ccccc2)n(CC(=O)NC(C)C)n1` | 1.786% |

Some entries from above, unchanged:

compound	Percent Effect
Cc1csc(CN2CC[C@H]3O[C@H](C(=O)Nc4cccnc4)CC[C@H]32)n1	-20.34%
O=C(NCC(=O)N1CCCc2ccccc21)c1c(O)cc(F)cc1F	-1.084%
CC(Nc1cccc(CN2CCOC2=O)c1)C(=O)Nc1ccccc1F (stereo not given)	-0.1876%
COCCC(=O)NCc1ccc(-c2ccccc2C(=O)O)cn1	2.06%
Cc1cc(Br)c(O)c(-c2nc(N3CCCCC3)sc2C)c1	1.727%
Cc1nc(CNCC2CCCN2c2cccnn2)no1 (stereo not given)	6.005%